From the supplement of paper PMC10849652
The other results are listed elsewhere or left out.

Amino acid sequences for entries named in this document (tags omitted). A change or cut given only in a name is not applied to a line headed by its entry.
UniProt O75629: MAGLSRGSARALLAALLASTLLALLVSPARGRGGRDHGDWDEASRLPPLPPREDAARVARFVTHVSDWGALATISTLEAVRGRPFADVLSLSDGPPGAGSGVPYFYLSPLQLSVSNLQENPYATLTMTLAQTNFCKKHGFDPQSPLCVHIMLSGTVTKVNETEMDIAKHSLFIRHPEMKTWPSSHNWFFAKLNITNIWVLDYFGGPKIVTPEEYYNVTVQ
UniProt Q14019: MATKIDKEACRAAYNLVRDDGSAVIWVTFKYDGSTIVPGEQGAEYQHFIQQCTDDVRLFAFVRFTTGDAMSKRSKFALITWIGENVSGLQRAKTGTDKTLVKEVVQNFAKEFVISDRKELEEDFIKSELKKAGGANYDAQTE
UniProt O95825: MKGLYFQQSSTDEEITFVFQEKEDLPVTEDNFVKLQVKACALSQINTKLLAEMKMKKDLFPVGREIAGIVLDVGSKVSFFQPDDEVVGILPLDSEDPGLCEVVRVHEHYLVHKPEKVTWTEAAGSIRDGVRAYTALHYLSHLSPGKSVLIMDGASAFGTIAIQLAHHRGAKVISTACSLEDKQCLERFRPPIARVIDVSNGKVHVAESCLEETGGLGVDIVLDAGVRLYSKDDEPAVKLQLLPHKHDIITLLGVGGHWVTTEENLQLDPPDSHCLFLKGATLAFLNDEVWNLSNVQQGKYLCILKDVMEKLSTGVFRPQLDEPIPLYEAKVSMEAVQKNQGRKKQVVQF
UniProt P53621: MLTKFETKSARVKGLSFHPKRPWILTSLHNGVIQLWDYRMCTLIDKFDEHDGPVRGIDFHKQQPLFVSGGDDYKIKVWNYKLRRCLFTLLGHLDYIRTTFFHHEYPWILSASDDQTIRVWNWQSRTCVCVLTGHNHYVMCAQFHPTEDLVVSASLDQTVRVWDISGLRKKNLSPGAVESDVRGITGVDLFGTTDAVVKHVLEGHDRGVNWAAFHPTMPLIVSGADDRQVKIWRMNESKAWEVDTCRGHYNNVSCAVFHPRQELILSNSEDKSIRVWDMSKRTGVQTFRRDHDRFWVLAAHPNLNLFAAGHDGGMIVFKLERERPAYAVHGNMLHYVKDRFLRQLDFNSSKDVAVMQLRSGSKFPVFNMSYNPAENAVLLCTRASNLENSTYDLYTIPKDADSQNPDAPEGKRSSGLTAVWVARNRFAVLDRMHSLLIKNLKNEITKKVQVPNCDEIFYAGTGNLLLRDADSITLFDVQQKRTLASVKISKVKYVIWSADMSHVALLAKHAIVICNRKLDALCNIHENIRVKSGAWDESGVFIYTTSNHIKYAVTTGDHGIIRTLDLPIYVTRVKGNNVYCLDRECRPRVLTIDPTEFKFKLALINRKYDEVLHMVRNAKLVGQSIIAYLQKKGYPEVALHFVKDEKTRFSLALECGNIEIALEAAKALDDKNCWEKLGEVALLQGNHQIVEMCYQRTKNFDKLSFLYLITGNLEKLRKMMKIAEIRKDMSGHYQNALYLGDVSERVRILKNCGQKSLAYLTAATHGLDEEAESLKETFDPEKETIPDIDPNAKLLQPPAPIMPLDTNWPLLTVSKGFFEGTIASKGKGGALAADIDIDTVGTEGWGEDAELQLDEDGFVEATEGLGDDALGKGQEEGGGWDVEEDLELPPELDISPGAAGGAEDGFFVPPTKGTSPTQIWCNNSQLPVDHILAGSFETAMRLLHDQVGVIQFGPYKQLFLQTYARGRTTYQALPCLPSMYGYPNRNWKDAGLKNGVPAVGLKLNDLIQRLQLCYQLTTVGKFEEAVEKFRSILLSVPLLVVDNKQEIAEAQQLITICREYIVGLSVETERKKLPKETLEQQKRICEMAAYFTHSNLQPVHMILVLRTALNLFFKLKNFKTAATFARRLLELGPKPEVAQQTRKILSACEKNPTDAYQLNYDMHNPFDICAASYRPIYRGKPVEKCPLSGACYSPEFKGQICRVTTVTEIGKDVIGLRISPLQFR
UniProt P48729: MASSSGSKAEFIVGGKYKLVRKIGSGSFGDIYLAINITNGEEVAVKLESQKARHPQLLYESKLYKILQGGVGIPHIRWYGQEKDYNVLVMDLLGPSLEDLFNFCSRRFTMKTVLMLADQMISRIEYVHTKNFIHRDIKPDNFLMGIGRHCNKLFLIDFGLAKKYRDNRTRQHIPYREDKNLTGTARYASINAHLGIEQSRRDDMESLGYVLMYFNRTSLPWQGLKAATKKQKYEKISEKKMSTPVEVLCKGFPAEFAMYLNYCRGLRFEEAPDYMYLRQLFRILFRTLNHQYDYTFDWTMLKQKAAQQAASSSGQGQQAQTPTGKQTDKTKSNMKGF
UniProt P48730: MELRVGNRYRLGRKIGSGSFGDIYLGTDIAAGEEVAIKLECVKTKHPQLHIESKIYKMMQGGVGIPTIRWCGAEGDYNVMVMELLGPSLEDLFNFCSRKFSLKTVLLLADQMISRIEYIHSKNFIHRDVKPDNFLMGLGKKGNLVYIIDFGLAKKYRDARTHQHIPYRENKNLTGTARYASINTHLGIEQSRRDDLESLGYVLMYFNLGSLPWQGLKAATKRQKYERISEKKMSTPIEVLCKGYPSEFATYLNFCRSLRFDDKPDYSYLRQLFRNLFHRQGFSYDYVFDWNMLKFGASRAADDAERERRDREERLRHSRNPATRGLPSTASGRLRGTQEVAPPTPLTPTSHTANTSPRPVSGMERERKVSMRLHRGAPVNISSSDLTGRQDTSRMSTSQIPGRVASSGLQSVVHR
UniProt Q99807: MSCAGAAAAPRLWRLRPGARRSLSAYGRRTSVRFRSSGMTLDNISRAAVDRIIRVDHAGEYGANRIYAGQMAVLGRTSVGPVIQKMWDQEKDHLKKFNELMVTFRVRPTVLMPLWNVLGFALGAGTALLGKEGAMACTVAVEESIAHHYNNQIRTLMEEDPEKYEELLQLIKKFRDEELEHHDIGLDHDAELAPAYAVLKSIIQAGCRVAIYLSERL
UniProt P46108: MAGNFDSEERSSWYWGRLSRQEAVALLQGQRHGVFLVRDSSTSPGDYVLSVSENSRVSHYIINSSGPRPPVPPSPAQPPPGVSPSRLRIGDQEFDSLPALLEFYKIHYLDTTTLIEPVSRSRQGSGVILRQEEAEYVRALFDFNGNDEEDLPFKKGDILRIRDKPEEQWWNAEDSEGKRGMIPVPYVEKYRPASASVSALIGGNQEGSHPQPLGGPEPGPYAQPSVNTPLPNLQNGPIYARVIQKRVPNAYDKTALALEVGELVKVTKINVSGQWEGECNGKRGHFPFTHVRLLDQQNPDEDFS
UniProt Q08257: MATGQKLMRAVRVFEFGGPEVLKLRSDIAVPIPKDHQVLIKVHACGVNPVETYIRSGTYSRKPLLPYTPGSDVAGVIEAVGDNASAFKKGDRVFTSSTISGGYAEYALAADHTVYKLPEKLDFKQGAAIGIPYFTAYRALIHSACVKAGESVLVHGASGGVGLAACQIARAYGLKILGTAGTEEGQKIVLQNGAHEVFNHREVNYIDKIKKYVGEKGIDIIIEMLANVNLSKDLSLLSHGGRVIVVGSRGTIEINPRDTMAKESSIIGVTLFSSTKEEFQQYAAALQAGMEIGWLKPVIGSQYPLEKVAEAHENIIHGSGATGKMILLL
UniProt Q6UXH1: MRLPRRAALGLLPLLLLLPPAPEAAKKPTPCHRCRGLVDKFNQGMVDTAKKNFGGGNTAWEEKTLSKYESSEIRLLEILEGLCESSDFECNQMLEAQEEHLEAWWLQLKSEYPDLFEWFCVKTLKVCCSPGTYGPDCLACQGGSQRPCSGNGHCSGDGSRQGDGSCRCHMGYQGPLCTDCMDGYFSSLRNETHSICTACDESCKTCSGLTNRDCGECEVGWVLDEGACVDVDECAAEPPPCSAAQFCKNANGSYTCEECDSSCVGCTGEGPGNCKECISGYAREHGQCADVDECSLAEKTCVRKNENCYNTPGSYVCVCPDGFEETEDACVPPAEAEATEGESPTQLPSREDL
UniProt Q9GZQ3, whole entry, looked up: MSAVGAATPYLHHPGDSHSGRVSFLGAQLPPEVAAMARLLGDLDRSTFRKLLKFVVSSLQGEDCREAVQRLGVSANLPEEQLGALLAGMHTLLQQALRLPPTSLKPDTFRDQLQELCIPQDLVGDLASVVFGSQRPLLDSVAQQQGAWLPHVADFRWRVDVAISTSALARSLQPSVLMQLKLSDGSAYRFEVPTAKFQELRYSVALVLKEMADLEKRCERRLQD
UniProt P10606, whole entry, looked up: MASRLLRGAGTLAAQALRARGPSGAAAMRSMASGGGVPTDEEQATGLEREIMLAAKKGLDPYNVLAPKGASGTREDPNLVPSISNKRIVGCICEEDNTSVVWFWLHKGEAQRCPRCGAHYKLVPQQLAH
UniProt A4D126: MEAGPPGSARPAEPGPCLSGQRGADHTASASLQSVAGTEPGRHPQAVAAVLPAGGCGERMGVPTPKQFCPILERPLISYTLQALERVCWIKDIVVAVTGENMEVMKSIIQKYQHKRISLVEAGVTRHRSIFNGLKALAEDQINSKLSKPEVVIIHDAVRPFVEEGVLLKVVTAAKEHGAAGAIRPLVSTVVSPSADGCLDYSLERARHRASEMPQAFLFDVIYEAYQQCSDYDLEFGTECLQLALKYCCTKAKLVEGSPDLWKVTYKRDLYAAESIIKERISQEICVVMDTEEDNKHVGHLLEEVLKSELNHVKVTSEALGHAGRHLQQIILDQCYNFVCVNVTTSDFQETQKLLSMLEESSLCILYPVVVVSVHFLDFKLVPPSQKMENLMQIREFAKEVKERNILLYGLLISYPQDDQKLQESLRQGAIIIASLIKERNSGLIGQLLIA
UniProt Q96FN4: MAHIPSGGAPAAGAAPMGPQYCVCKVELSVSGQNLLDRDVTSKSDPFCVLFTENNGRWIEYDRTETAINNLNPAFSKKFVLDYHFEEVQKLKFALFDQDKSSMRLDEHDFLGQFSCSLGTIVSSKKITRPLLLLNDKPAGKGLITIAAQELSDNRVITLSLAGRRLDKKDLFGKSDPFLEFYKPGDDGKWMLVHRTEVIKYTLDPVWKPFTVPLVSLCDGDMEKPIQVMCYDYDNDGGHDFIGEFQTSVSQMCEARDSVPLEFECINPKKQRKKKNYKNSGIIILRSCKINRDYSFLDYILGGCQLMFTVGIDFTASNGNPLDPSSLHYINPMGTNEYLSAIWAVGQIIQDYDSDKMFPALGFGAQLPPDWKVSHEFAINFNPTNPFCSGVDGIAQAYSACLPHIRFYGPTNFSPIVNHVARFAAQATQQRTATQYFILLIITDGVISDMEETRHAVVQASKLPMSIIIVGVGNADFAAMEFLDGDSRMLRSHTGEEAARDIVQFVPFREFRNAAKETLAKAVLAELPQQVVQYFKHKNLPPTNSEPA
UniProt P14406, whole entry, looked up: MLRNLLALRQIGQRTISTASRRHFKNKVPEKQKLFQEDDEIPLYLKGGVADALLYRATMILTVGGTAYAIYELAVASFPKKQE
UniProt P53618: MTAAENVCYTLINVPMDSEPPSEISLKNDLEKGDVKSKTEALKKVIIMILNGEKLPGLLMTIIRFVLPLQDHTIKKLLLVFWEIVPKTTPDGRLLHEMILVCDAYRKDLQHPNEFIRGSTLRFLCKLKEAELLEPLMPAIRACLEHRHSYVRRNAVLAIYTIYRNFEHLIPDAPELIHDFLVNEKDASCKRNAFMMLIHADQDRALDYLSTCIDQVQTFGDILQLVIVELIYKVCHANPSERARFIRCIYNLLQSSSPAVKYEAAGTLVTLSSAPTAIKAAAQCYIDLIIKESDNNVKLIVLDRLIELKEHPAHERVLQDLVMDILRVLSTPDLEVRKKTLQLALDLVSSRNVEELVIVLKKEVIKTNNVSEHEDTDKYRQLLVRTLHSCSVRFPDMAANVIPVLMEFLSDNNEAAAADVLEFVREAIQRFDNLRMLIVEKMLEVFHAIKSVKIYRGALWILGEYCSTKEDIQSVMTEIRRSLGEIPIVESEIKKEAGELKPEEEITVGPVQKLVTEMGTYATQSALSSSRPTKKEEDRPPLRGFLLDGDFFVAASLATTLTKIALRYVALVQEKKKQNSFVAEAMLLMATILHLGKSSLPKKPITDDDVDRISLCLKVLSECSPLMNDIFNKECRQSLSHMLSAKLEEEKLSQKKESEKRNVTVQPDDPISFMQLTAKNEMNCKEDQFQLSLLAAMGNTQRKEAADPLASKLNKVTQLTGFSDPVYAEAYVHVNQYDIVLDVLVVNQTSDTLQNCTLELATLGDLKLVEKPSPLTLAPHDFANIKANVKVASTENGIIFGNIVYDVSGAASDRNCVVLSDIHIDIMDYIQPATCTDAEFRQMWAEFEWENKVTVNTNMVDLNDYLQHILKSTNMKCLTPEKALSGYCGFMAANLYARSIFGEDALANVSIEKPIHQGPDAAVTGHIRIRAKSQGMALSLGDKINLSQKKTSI
UniProt Q86VU5: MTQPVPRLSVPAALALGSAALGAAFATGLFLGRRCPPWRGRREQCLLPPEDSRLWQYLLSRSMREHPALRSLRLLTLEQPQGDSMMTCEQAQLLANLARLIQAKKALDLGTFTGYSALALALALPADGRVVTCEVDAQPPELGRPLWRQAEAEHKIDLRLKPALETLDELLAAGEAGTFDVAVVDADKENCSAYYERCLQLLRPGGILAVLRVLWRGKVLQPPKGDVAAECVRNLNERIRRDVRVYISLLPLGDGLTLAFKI

How the values were obtained:
Experiment in all cases: log2 fold change, soluble protein after heating vs DMSO (PISA); higher = thermal stabilisation; K562 cells, 10 uM, 30 min; active = over 0.2 and 3.5 SD of the protein, either way, in both replicates (recomputed)
[1] = compound: NC(=O)Nc1cc(-c2cccc(F)c2)sc1C(=O)N[C@H]1CCCNC1
In short: (§1)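 Soluble protein was quantified by TMTpro 16plex LC-MS/MS after channel sums were equalised. It was obtained as the supernatant after 21,000xg for 90 min from pooled aliquots of K562 cells (2×10^6 cells/mL, 10 μM compound, 30 min) heated for 3 min across 48°C-58°C and extracted in PBS with 0.5% NP-40 at 4°C. Thermal stability values are relative to control samples and come from duplicates. They are given as log2 fold changes.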

[2] = compound: NC(=O)c1cnc(N[C@@H]2CCCC[C@@H]2N)nc1Nc1cccc(-n2nccn2)c1
In short: as §1

[3] = compound: NC1(c2ccc(-c3nc4ccn5c(=O)[nH]nc5c4cc3-c3ccccc3)cc2)CCC1
In short: as §1

[4] = compound: NCC(=O)Nc1ccc(-n2nc(C(F)(F)F)cc2-c2ccc3c(ccc4ccccc43)c2)cc1
In short: as §1

entinostat = compound: Nc1ccccc1NC(=O)c1ccc(CNC(=O)OCc2cccnc2)cc1 [entinostat]
In short: as §1

vorinostat = compound: O=C(CCCCCCC(=O)Nc1ccccc1)NO [vorinostat]
In short: as §1

citarinostat = compound: O=C(CCCCCCNC(=O)c1cnc(N(c2ccccc2)c2ccccc2Cl)nc1)NO [citarinostat]
In short: as §1

silmitasertib = compound: O=C(O)c1ccc2c(c1)nc(Nc1cccc(Cl)c1)c1ccncc12 [silmitasertib]
In short: as §1

[5] = compound: O=C1NC(=O)C(c2cnc3ccccn23)=C1c1cn2c3c(cc(F)cc13)CN(C(=O)N1CCCCC1)CC2
In short: as §1

[6] = compound: c1cc(OCCN2CCCCC2)cc(-c2n[nH]c3ccc(-c4nnc[nH]4)cc23)c1
In short: as §1

Measured: log2 fold change

COLGALT2 (UniProt Q8IYK4)
inactive: [1] 0.014 | [2] 0 | [3] -0.075 | [4] 0.011 | entinostat 0.014 | vorinostat -0.031 | citarinostat 0.024 | silmitasertib 0.044 | [5] -0.019 | [6] -0.061

COLGALT1 (UniProt Q8NBJ5)
inactive: [1] 0.007 | [2] 0.026 | [3] -0.045 | [4] 0.053 | entinostat 0.002 | vorinostat -0.022 | citarinostat 0.008 | silmitasertib 0.04 | [5] 0.161 | [6] -0.06

CREG1 (UniProt O75629)
inactive: [1] -0.01 | [2] 0.056 | [3] 0.137 | [4] -0.04 | entinostat -0.13 | vorinostat -0.061 | citarinostat -0.066 | silmitasertib -0.044 | [5] -0.063 | [6] 0.061

COX20 isoform 2 (UniProt Q5RI15)
active: [3] 0.363
inactive: [1] -0.02 | [2] -0.016 | [4] -0.029 | entinostat -0.036 | vorinostat -0.116 | citarinostat 0.027 | silmitasertib -0.034 | [5] -0.004 | [6] 0.016

COTL1 (UniProt Q14019)
inactive: [1] -0.033 | [2] -0.042 | [3] -0.053 | [4] -0.078 | entinostat 0.002 | vorinostat 0 | citarinostat 0.051 | silmitasertib 0.017 | [5] -0.03 | [6] -0.029

CPT1A (UniProt P50416)
inactive: [1] -0.068 | [2] -0.012 | [3] 0.117 | [4] -0.001 | entinostat -0.005 | vorinostat -0.017 | citarinostat 0.053 | silmitasertib 0.037 | [5] -0.014 | [6] 0.071

CRYZL1 (UniProt O95825)
inactive: [1] 0.056 | [2] 0.016 | [3] 0.002 | [4] 0.045 | entinostat -0.015 | vorinostat -0.028 | citarinostat 0.02 | silmitasertib 0.016 | [5] -0.03 | [6] -0.002

COPA isoform 2 (UniProt P53621)
inactive: [1] -0.048 | [2] -0.037 | [3] -0.047 | [4] -0.021 | entinostat 0.006 | vorinostat -0.014 | citarinostat 0.044 | silmitasertib 0.011 | [5] -0.017 | [6] -0.031

CSNK1G3 (UniProt Q9Y6M4)
inactive: [1] 0.004 | [2] -0.104 | [3] -0.087 | [4] -0.077 | entinostat 0.022 | vorinostat 0.02 | citarinostat 0.047 | silmitasertib 0.087 | [5] 0.121 | [6] -0.049

CREM isoform 1 (UniProt Q03060)
inactive: [1] -0.165 | [2] -0.099 | [3] 0.075 | [4] 0.054 | entinostat 0.025 | vorinostat -0.205 | citarinostat 0.027 | silmitasertib -0.036 | [5] 0.101 | [6] -0.254

CSNK1A1 (UniProt P48729)
inactive: [1] -0.067 | [2] -0.001 | [3] 0.031 | [4] 0.019 | entinostat 0.023 | vorinostat -0.087 | citarinostat 0.016 | silmitasertib 0.048 | [5] 0.243 | [6] -0.084

CSNK1D (UniProt P48730)
inactive: [1] -0.043 | [2] 0.185 | [3] 0.106 | [4] -0.02 | entinostat -0.062 | vorinostat 0 | citarinostat -0.025 | silmitasertib 0.054 | [5] 0.107 | [6] 0.173

COQ7 (UniProt Q99807)
inactive: [1] -0.12 | [2] -0.009 | [3] -0.076 | [4] -0.007 | entinostat 0 | vorinostat -0.032 | citarinostat 0.083 | silmitasertib 0.008 | [5] -0.002 | [6] 0.015

CRK (UniProt P46108)
active: [1] -0.81
inactive: [2] 0.004 | [3] -0.063 | [4] -0.011 | entinostat 0.026 | vorinostat -0.002 | citarinostat 0.061 | silmitasertib 0.062 | [5] -0.016 | [6] -0.016

CRYZ (UniProt Q08257)
inactive: [1] -0.031 | [2] -0.062 | [3] -0.005 | [4] -0.013 | entinostat 0 | vorinostat -0.023 | citarinostat 0.042 | silmitasertib -0.017 | [5] -0.061 | [6] -0.028

CREB1 (UniProt P16220)
inactive: [1] 0.002 | [2] -0.038 | [3] -0.024 | [4] -0.068 | entinostat -0.073 | vorinostat -0.154 | citarinostat -0.036 | silmitasertib -0.024 | [5] -0.018 | [6] -0.106

CRELD2 isoform 5 (UniProt Q6UXH1)
inactive: [1] 0.003 | [2] 0 | [3] 0.013 | [4] -0.021 | entinostat -0.01 | vorinostat -0.04 | citarinostat -0.016 | silmitasertib 0.039 | [5] 0.103 | [6] -0.018

CORO7 isoform 3 (UniProt P57737)
inactive: [1] 0.128 | [2] -0.035 | [3] -0.032 | [4] -0.023 | entinostat 0.063 | vorinostat -0.027 | citarinostat 0.093 | silmitasertib -0.018 | [5] 0.176 | [6] 0.021

COQ8A (UniProt Q8NI60)
inactive: [1] 0.019 | [2] 0.016 | [3] -0.039 | [4] 0.142 | entinostat 0.023 | vorinostat 0.057 | citarinostat -0.001 | silmitasertib -0.03 | [5] -0.018 | [6] -0.032

COMMD5 (UniProt Q9GZQ3)
inactive: [1] -0.007 | [2] -0.021 | [3] -0.124 | [4] -0.042 | entinostat -0.001 | vorinostat -0.043 | citarinostat 0.067 | silmitasertib -0.005 | [5] -0.02 | [6] 0.035

COX5B (UniProt P10606)
inactive: [1] 0.041 | [2] 0.031 | [3] 0.053 | [4] -0.015 | entinostat -0.006 | vorinostat -0.151 | citarinostat 0.02 | silmitasertib -0.04 | [5] -0.131 | [6] 0.034

CRPPA (UniProt A4D126)
inactive: [1] -0.04 | [2] -0.019 | [3] -0.013 | [4] -0.004 | entinostat -0.043 | vorinostat -0.057 | citarinostat 0.028 | silmitasertib 0.004 | [5] -0.037 | [6] -0.011

COMMD10 (UniProt Q9Y6G5)
inactive: [1] -0.041 | [2] 0.019 | [3] -0.057 | [4] 0.099 | entinostat -0.004 | vorinostat 0.007 | citarinostat 0.025 | silmitasertib -0.043 | [5] -0.046 | [6] -0.079

CPOX (UniProt P36551)
inactive: [1] 0.013 | [2] -0.035 | [3] 0.006 | [4] 0.015 | entinostat -0.041 | vorinostat -0.009 | citarinostat -0.004 | silmitasertib 0.051 | [5] 0.001 | [6] 0.041

COMMD2 (UniProt Q86X83)
inactive: [1] -0.007 | [2] -0.034 | [3] -0.098 | [4] 0.039 | entinostat -0.062 | vorinostat 0.049 | citarinostat 0.011 | silmitasertib 0.053 | [5] 0.011 | [6] -0.08

CPNE1 (UniProt Q99829)
inactive: [1] -0.007 | [2] 0.008 | [3] -0.16 | [4] -0.021 | entinostat -0.023 | vorinostat -0.029 | citarinostat 0.025 | silmitasertib 0.034 | [5] -0.053 | [6] 0.016

CPNE2 (UniProt Q96FN4)
inactive: [1] -0.085 | [2] -0.001 | [3] -0.308 | [4] -0.103 | entinostat -0.081 | vorinostat -0.205 | citarinostat 0.134 | silmitasertib 0.061 | [5] 0.066 | [6] 0.038

COX7A2 (UniProt P14406)
inactive: [1] -0.002 | [2] -0.06 | [3] -0.069 | [4] -0.06 | entinostat 0.027 | vorinostat -0.136 | citarinostat -0.024 | silmitasertib -0.052 | [5] 0.02 | [6] -0.036

COPB1 (UniProt P53618)
inactive: [1] -0.004 | [2] -0.004 | [3] -0.082 | [4] -0.009 | entinostat 0.048 | vorinostat 0.023 | citarinostat 0.073 | silmitasertib 0.012 | [5] -0.004 | [6] -0.034

Taken from the entries so far (2 entries):
CPNE2 (UniProt Q96FN4)
inactive: [1] -0.085 | [2] -0.001 | [3] -0.308 | [4] -0.103 | entinostat -0.081 | vorinostat -0.205 | citarinostat 0.134 | silmitasertib 0.061 | [5] 0.066 | [6] 0.038

COX7A2 (UniProt P14406)
inactive: [1] -0.002 | [2] -0.06 | [3] -0.069 | [4] -0.06 | entinostat 0.027 | vorinostat -0.136 | citarinostat -0.024 | silmitasertib -0.052 | [5] 0.02 | [6] -0.036

Remaining list, next part

COMTD1 (UniProt Q86VU5)
inactive: [1] 0.002 | [2] 0.029 | [3] -0.093 | [4] 0.026 | entinostat -0.047 | vorinostat -0.059 | citarinostat -0.078 | silmitasertib -0.036 | [5] -0.109 | [6] -0.084
